Reference: the M2OR odorant receptor database
This is a selection; strong and weak results do not stand in their true shares. Calls are pooled over several reports, among them a noisy single-well screen. Some of the results follow.

Amino acid sequences for entries named in this document (tags omitted). A change or cut given only in a name is not applied to a line headed by its entry.
UniProt Q96RD3: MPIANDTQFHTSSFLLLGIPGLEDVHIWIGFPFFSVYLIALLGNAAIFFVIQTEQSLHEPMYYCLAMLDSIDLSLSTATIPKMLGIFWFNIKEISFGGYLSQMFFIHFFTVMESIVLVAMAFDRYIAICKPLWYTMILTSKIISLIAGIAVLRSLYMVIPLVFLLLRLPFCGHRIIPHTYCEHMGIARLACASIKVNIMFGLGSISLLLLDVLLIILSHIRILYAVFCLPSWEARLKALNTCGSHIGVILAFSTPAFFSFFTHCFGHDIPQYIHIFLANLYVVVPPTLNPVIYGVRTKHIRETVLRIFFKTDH

Legend:
Settings in all cases: stereoisomer not certain
[1] = biological target: OR52E6 (Homo sapiens) (UniProt Q96RD3)
Procedure, shortened: (§1)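 Each entry records the cell line, G-protein, co-transfected protein and tags used. Methods varied with the source, often transient luciferase assays in mammalian cell lines. A receptor–molecule pair is called responsive (active) if the original authors judged its signal statistically different from baseline and non-responsive (inactive) otherwise.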

[2] = biological target: T1, OR52H1 (Homo sapiens) (UniProt Q8NGJ2)
T1 sequence (whole entry): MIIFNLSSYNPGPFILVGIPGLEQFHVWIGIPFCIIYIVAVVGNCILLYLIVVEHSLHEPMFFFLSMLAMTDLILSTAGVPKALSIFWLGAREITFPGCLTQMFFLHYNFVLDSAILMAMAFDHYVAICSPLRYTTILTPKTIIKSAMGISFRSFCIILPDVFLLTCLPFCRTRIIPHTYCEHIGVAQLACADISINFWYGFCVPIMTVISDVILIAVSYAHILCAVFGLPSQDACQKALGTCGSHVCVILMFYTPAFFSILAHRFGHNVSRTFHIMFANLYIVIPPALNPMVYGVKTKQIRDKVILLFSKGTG
Procedure, shortened: as §1

[3] = biological target: T2, OR52K1 (Homo sapiens) (UniProt Q8NGK4)
T2 sequence (whole entry): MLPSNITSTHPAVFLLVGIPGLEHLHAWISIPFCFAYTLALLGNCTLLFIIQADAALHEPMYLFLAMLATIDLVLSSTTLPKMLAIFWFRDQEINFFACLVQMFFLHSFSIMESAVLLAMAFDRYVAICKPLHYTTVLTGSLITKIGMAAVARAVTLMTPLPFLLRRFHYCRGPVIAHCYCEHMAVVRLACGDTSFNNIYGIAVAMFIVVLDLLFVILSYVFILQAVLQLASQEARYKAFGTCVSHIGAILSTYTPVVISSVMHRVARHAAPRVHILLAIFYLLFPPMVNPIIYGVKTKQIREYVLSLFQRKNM
Procedure, shortened: as §1

[4] = biological target: T3, OR52K2 (Homo sapiens) (UniProt Q8NGK3)
T3 sequence (whole entry): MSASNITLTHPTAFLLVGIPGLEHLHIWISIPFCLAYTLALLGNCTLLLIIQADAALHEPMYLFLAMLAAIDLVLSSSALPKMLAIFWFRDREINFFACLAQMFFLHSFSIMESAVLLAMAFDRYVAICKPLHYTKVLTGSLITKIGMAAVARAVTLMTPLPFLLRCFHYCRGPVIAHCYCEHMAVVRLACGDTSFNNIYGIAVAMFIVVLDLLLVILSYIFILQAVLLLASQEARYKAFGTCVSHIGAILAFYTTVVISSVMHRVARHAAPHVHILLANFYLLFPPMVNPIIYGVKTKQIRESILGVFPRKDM
Procedure, shortened: as §1

[5] = biological target: T4, OR52N5 (Homo sapiens) (UniProt Q8NH56)
T4 sequence (whole entry): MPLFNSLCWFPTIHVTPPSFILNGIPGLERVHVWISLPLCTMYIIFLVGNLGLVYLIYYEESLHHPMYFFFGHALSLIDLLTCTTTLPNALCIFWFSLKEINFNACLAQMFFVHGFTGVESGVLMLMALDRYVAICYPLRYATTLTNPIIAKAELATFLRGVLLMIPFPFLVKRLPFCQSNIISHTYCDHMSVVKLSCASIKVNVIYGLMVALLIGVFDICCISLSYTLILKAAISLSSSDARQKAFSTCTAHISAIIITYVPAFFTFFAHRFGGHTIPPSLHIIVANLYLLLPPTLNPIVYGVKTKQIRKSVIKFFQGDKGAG
Procedure, shortened: as §1

[6] = biological target: T5, OR56A1 (Homo sapiens) (UniProt Q8NGH5)
T5 sequence (whole entry): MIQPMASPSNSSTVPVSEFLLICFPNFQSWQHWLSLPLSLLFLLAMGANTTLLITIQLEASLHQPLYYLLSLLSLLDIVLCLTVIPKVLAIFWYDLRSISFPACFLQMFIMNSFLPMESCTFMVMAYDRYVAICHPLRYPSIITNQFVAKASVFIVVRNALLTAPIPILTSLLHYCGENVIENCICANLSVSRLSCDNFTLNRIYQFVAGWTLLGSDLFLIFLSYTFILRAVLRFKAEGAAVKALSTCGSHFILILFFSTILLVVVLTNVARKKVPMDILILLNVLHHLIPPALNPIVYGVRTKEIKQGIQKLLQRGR
Procedure, shortened: as §1

[7] = biological target: T6, OR56A4 (Homo sapiens) (UniProt Q8NGH8)
T6 sequence (whole entry): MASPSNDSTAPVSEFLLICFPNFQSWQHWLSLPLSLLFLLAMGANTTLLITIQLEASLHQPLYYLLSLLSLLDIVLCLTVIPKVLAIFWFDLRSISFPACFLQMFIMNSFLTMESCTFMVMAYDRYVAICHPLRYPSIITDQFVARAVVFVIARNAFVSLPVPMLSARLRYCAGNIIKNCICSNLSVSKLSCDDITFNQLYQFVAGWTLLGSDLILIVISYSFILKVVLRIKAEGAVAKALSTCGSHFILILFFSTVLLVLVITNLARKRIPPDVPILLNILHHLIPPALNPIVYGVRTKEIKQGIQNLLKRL
Procedure, shortened: as §1

CC1COCc2cc3c(cc21)C(C)(C)C(C)C3(C)C (stereo not drawn)
odorant receptor agonist call [1]: inactive | odorant receptor agonist call [2]: active | odorant receptor agonist call [3]: inactive | odorant receptor agonist call [4]: active | odorant receptor agonist call [5]: inactive | odorant receptor agonist call [6]: active | odorant receptor agonist call [7]: inactive

CCC=CCCO
odorant receptor agonist call [1]: inactive | odorant receptor agonist call [2]: active | odorant receptor agonist call [3]: inactive | odorant receptor agonist call [4]: inactive | odorant receptor agonist call [5]: inactive | odorant receptor agonist call [6]: inactive | odorant receptor agonist call [7]: inactive

CC(C)(O)CCCC1=CCC(C=O)CC1 (stereo not drawn)
odorant receptor agonist call [2]: inactive | odorant receptor agonist call [5]: active | odorant receptor agonist call [7]: inactive

CC(C)(C)c1ccc(CCC=O)cc1
odorant receptor agonist call [1]: inactive | odorant receptor agonist call [2]: inactive | odorant receptor agonist call [3]: inactive | odorant receptor agonist call [4]: inactive | odorant receptor agonist call [5]: active | odorant receptor agonist call [6]: inactive | odorant receptor agonist call [7]: inactive

CC(C)C(=O)O
odorant receptor agonist call [1]: active | odorant receptor agonist call [2]: inactive | odorant receptor agonist call [3]: inactive | odorant receptor agonist call [4]: inactive | odorant receptor agonist call [5]: inactive | odorant receptor agonist call [6]: inactive | odorant receptor agonist call [7]: inactive

CC1=CCC(C(C)(C)O)CC1 (stereo not drawn)
odorant receptor agonist call [1]: inactive | odorant receptor agonist call [2]: inactive | odorant receptor agonist call [3]: inactive | odorant receptor agonist call [4]: inactive | odorant receptor agonist call [5]: active | odorant receptor agonist call [6]: inactive | odorant receptor agonist call [7]: inactive
